# Measurements taken from the supplement of paper PMC4604168 (melanoma cell lines).
# Some of the results follow. Many values rest on one well or one pass, so single values are uncertain.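 Cells were imaged in 1,536-well plates, and nuclei stained with an antibody against cleaved PARP were counted against all DNA-stained nuclei to give the apoptosis fraction. Screening doses were chosen to leave most cells alive, and resting and induced cleaved-PARP levels differ strongly between cell lines.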
# Test system: WM3619
# Assay: cleaved PARP positive nuclei fraction relative to DMSO control; melanoma cells; higher = more apoptosis
# Settings: library dose: low library concentration; 72 h
row,SMILES,cleaved PARP positive nuclei fraction [%]
1,"CO[C@H]1C[C@@H]2CC[C@@H](C)[C@@](O)(O2)C(=O)C(=O)N2CCCC[C@H]2C(=O)O[C@H]([C@H](C)C[C@@H]2CC[C@@H](OCCO)[C@H](OC)C2)CC(=O)[C@H](C)/C=C(\C)[C@@H](O)[C@@H](OC)C(=O)[C@H](C)C[C@H](C)/C=C/C=C/C=C/1C [everolimus] + CO[C@@H]1[C@H](N(C)C(=O)c2ccccc2)C[C@H]2O[C@]1(C)n1c3ccccc3c3c4c(c5c6ccccc6n2c5c31)C(=O)NC4 [Midostaurin] (first compound 0.02 µM, partner dose 0.08 µM)",114
2,"CO[C@H]1C[C@@H]2CC[C@@H](C)[C@@](O)(O2)C(=O)C(=O)N2CCCC[C@H]2C(=O)O[C@H]([C@H](C)C[C@@H]2CC[C@@H](OCCO)[C@H](OC)C2)CC(=O)[C@H](C)/C=C(\C)[C@@H](O)[C@@H](OC)C(=O)[C@H](C)C[C@H](C)/C=C/C=C/C=C/1C [everolimus] + CCN(CC)CCCCNc1ncc2cc(-c3cc(OC)cc(OC)c3)c(NC(=O)NC(C)(C)C)nc2n1 [PD173074] (first compound 0.02 µM, partner dose 0.1 µM)",247
3,"CO[C@H]1C[C@@H]2CC[C@@H](C)[C@@](O)(O2)C(=O)C(=O)N2CCCC[C@H]2C(=O)O[C@H]([C@H](C)C[C@@H]2CC[C@@H](OCCO)[C@H](OC)C2)CC(=O)[C@H](C)/C=C(\C)[C@@H](O)[C@@H](OC)C(=O)[C@H](C)C[C@H](C)/C=C/C=C/C=C/1C [everolimus] + Cc1cc(N2CCOCC2)cc2[nH]c(-c3c(NC[C@@H](O)c4cccc(Cl)c4)cc[nH]c3=O)nc12 [BMS536924] (first compound 0.02 µM, partner dose 0.2 µM)",148
4,"CO[C@H]1C[C@@H]2CC[C@@H](C)[C@@](O)(O2)C(=O)C(=O)N2CCCC[C@H]2C(=O)O[C@H]([C@H](C)C[C@@H]2CC[C@@H](OCCO)[C@H](OC)C2)CC(=O)[C@H](C)/C=C(\C)[C@@H](O)[C@@H](OC)C(=O)[C@H](C)C[C@H](C)/C=C/C=C/C=C/1C [everolimus] + Cn1cc(/C=C2\C(=O)Nc3cccnc32)c2ccccc21 [GW441756] (first compound 0.02 µM, partner dose 0.4 µM)",116
5,"CO[C@H]1C[C@@H]2CC[C@@H](C)[C@@](O)(O2)C(=O)C(=O)N2CCCC[C@H]2C(=O)O[C@H]([C@H](C)C[C@@H]2CC[C@@H](OCCO)[C@H](OC)C2)CC(=O)[C@H](C)/C=C(\C)[C@@H](O)[C@@H](OC)C(=O)[C@H](C)C[C@H](C)/C=C/C=C/C=C/1C [everolimus] + Cn1c(Nc2ccc(C(F)(F)F)cc2)nc2cc(Oc3ccnc(-c4ncc(C(F)(F)F)[nH]4)c3)ccc21 [CHIR265] (first compound 0.02 µM, partner dose 0.08 µM)",120
6,"CO[C@H]1C[C@@H]2CC[C@@H](C)[C@@](O)(O2)C(=O)C(=O)N2CCCC[C@H]2C(=O)O[C@H]([C@H](C)C[C@@H]2CC[C@@H](OCCO)[C@H](OC)C2)CC(=O)[C@H](C)/C=C(\C)[C@@H](O)[C@@H](OC)C(=O)[C@H](C)C[C@H](C)/C=C/C=C/C=C/1C [everolimus] + COc1cc2ncnc(Nc3ccc(Oc4ccccc4)cc3)c2cc1OC [SrcI1] (first compound 0.02 µM, partner dose 2 µM)",132
7,"CO[C@H]1C[C@@H]2CC[C@@H](C)[C@@](O)(O2)C(=O)C(=O)N2CCCC[C@H]2C(=O)O[C@H]([C@H](C)C[C@@H]2CC[C@@H](OCCO)[C@H](OC)C2)CC(=O)[C@H](C)/C=C(\C)[C@@H](O)[C@@H](OC)C(=O)[C@H](C)C[C@H](C)/C=C/C=C/C=C/1C [everolimus] + CN(NC(=O)CC(=O)NN(C)C(=S)c1ccccc1)C(=S)c1ccccc1 [STA4783] (first compound 0.02 µM, partner dose 0.006 µM)",168
8,"CO[C@H]1C[C@@H]2CC[C@@H](C)[C@@](O)(O2)C(=O)C(=O)N2CCCC[C@H]2C(=O)O[C@H]([C@H](C)C[C@@H]2CC[C@@H](OCCO)[C@H](OC)C2)CC(=O)[C@H](C)/C=C(\C)[C@@H](O)[C@@H](OC)C(=O)[C@H](C)C[C@H](C)/C=C/C=C/C=C/1C [everolimus] + CCCCCCCCCCCC1=C(O)C(=O)C=C(O)C1=O [Embelin] (first compound 0.02 µM, partner dose 1.2 µM)",137
9,"CO[C@H]1C[C@@H]2CC[C@@H](C)[C@@](O)(O2)C(=O)C(=O)N2CCCC[C@H]2C(=O)O[C@H]([C@H](C)C[C@@H]2CC[C@@H](OCCO)[C@H](OC)C2)CC(=O)[C@H](C)/C=C(\C)[C@@H](O)[C@@H](OC)C(=O)[C@H](C)C[C@H](C)/C=C/C=C/C=C/1C [everolimus] + COC(=O)c1sccc1S(=O)(=O)Nc1ccc(Nc2ccccc2)cc1OC [GSK0660] (first compound 0.02 µM, partner dose 1 µM)",122
10,"CO[C@H]1C[C@@H]2CC[C@@H](C)[C@@](O)(O2)C(=O)C(=O)N2CCCC[C@H]2C(=O)O[C@H]([C@H](C)C[C@@H]2CC[C@@H](OCCO)[C@H](OC)C2)CC(=O)[C@H](C)/C=C(\C)[C@@H](O)[C@@H](OC)C(=O)[C@H](C)C[C@H](C)/C=C/C=C/C=C/1C [everolimus] + C[C@@H]1CCN(C(=O)CC#N)C[C@@H]1N(C)c1ncnc2[nH]ccc12 [CP690550] (first compound 0.02 µM, partner dose 1 µM)",116
11,"CO[C@H]1C[C@@H]2CC[C@@H](C)[C@@](O)(O2)C(=O)C(=O)N2CCCC[C@H]2C(=O)O[C@H]([C@H](C)C[C@@H]2CC[C@@H](OCCO)[C@H](OC)C2)CC(=O)[C@H](C)/C=C(\C)[C@@H](O)[C@@H](OC)C(=O)[C@H](C)C[C@H](C)/C=C/C=C/C=C/1C [everolimus] + Oc1cc(-c2nc(-c3ccccc3)[nH]c2-c2ccncc2)ccc1Cl [L779450] (first compound 0.02 µM, partner dose 0.2 µM)",168
12,"CO[C@H]1C[C@@H]2CC[C@@H](C)[C@@](O)(O2)C(=O)C(=O)N2CCCC[C@H]2C(=O)O[C@H]([C@H](C)C[C@@H]2CC[C@@H](OCCO)[C@H](OC)C2)CC(=O)[C@H](C)/C=C(\C)[C@@H](O)[C@@H](OC)C(=O)[C@H](C)C[C@H](C)/C=C/C=C/C=C/1C [everolimus] + Cn1cncc1[C@@](N)(c1ccc(Cl)cc1)c1ccc2c(c1)c(-c1cccc(Cl)c1)cc(=O)n2C [tipifarnib] (first compound 0.02 µM, partner dose 0.01 µM)",134
13,"CO[C@H]1C[C@@H]2CC[C@@H](C)[C@@](O)(O2)C(=O)C(=O)N2CCCC[C@H]2C(=O)O[C@H]([C@H](C)C[C@@H]2CC[C@@H](OCCO)[C@H](OC)C2)CC(=O)[C@H](C)/C=C(\C)[C@@H](O)[C@@H](OC)C(=O)[C@H](C)C[C@H](C)/C=C/C=C/C=C/1C [everolimus] + NCC(=O)Nc1ccc(-n2nc(C(F)(F)F)cc2-c2ccc3c(ccc4ccccc43)c2)cc1 [OSU03012] (first compound 0.02 µM, partner dose 1 µM)",61.5
14,"CO[C@H]1C[C@@H]2CC[C@@H](C)[C@@](O)(O2)C(=O)C(=O)N2CCCC[C@H]2C(=O)O[C@H]([C@H](C)C[C@@H]2CC[C@@H](OCCO)[C@H](OC)C2)CC(=O)[C@H](C)/C=C(\C)[C@@H](O)[C@@H](OC)C(=O)[C@H](C)C[C@H](C)/C=C/C=C/C=C/1C [everolimus] + NC(=O)Nc1cc(-c2cccc(F)c2)sc1C(=O)N[C@H]1CCCNC1 [AZD7762] (first compound 0.02 µM, partner dose 0.02 µM)",212
15,"CO[C@H]1C[C@@H]2CC[C@@H](C)[C@@](O)(O2)C(=O)C(=O)N2CCCC[C@H]2C(=O)O[C@H]([C@H](C)C[C@@H]2CC[C@@H](OCCO)[C@H](OC)C2)CC(=O)[C@H](C)/C=C(\C)[C@@H](O)[C@@H](OC)C(=O)[C@H](C)C[C@H](C)/C=C/C=C/C=C/1C [everolimus] + O=C(Nc1ccccc1)c1cc([N+](=O)[O-])ccc1Cl [GW9662] (first compound 0.02 µM, partner dose 2 µM)",158
16,"CO[C@H]1C[C@@H]2CC[C@@H](C)[C@@](O)(O2)C(=O)C(=O)N2CCCC[C@H]2C(=O)O[C@H]([C@H](C)C[C@@H]2CC[C@@H](OCCO)[C@H](OC)C2)CC(=O)[C@H](C)/C=C(\C)[C@@H](O)[C@@H](OC)C(=O)[C@H](C)C[C@H](C)/C=C/C=C/C=C/1C [everolimus] + O=C1NC(=O)/C(=C/c2ccc(-c3ccc(F)cc3O)o2)S1 [AS252424] (first compound 0.02 µM, partner dose 1 µM)",137
17,"O=C(O)[C@@H]1[O][Sb](=[O])([O][Sb]2(=[O])[O][C@H]([C@H](O)CO)[C@H](O)[C@H](C(=O)O)[O]2)[O][C@H]([C@H](O)CO)[C@@H]1O (stereo partly drawn) [stibogluconate] + Clc1ccc(Nc2nnc(Cc3ccncc3)c3ccccc23)cc1 [vatalanib] (first compound 2 µM, partner dose 2 µM)",85.1
18,"CO[C@H]1C[C@@H]2CC[C@@H](C)[C@@](O)(O2)C(=O)C(=O)N2CCCC[C@H]2C(=O)O[C@H]([C@H](C)C[C@@H]2CC[C@@H](OCCO)[C@H](OC)C2)CC(=O)[C@H](C)/C=C(\C)[C@@H](O)[C@@H](OC)C(=O)[C@H](C)C[C@H](C)/C=C/C=C/C=C/1C [everolimus] + O=C(CCCCCCC(=O)Nc1ccccc1)NO [vorinostat] (first compound 0.02 µM, partner dose 0.08 µM)",107

# In another format: results already given
row	SMILES	cleaved PARP positive nuclei fraction [%]
9	CO[C@H]1C[C@@H]2CC[C@@H](C)[C@@](O)(O2)C(=O)C(=O)N2CCCC[C@H]2C(=O)O[C@H]([C@H](C)C[C@@H]2CC[C@@H](OCCO)[C@H](OC)C2)CC(=O)[C@H](C)/C=C(\C)[C@@H](O)[C@@H](OC)C(=O)[C@H](C)C[C@H](C)/C=C/C=C/C=C/1C [everolimus] + COC(=O)c1sccc1S(=O)(=O)Nc1ccc(Nc2ccccc2)cc1OC [GSK0660] (first compound 0.02 µM, partner dose 1 µM)	122
10	CO[C@H]1C[C@@H]2CC[C@@H](C)[C@@](O)(O2)C(=O)C(=O)N2CCCC[C@H]2C(=O)O[C@H]([C@H](C)C[C@@H]2CC[C@@H](OCCO)[C@H](OC)C2)CC(=O)[C@H](C)/C=C(\C)[C@@H](O)[C@@H](OC)C(=O)[C@H](C)C[C@H](C)/C=C/C=C/C=C/1C [everolimus] + C[C@@H]1CCN(C(=O)CC#N)C[C@@H]1N(C)c1ncnc2[nH]ccc12 [CP690550] (first compound 0.02 µM, partner dose 1 µM)	116
